Reference: patent US20220184177A1
No constants are given. Whether binding was seen depends on the method and setting. Some results given as binding are weak or reduced against the parent protein; the word gives no strength.

Chains of the proteins cited; added tags and fusions are not shown.
UniProt P05412: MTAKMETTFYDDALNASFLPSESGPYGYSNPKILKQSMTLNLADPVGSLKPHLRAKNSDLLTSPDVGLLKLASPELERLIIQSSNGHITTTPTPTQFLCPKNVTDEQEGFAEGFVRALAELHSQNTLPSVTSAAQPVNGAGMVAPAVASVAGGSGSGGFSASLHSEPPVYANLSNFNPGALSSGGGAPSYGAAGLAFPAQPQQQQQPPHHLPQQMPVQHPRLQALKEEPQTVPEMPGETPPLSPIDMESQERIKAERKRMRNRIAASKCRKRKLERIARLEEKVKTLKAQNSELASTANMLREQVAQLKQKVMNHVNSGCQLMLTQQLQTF
UniProt P03372: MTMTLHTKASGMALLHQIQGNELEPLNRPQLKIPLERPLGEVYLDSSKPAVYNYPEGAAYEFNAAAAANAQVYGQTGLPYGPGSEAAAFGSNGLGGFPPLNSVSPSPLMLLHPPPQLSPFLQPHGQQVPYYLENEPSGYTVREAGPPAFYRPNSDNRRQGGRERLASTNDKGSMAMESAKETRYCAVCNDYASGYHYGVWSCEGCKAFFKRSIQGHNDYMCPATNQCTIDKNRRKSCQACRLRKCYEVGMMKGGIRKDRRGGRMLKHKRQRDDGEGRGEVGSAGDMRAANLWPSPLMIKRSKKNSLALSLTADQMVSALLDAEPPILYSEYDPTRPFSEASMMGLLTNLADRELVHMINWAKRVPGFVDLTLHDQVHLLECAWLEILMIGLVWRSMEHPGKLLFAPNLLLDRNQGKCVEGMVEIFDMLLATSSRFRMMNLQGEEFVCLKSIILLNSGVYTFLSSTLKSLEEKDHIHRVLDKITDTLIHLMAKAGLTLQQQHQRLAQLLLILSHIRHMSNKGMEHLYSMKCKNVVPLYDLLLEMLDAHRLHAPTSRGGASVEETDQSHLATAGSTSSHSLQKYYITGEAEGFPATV

What was measured:
[1] = target: His-tagged recombinant c-Jun (UniProt P05412); assay: BLI (Octet), His-tagged c-Jun captured on anti-His tips, full-length CAPER in solution
Estrogen Receptor α [2] = target: Estrogen Receptor α (UniProt P03372); assay: BLI binding curves on ERα
[3] = target: His-tagged recombinant c-Jun (UniProt P05412); assay: BLI competition assay, CAPER-alone reference curve on c-Jun tips without peptide
Estrogen Receptor α [4] = target: Estrogen Receptor α (UniProt P03372); assay: BLI competition assay, CAPER-alone reference curve on ER without peptide

Measured: binding

B1: Recombinant Full-Length CAPER HCC1.3 (protein)
chain: ADDIDIEAMLEAPYKKDENKLSSANGHEERSKKRKKSKSRSRSHERKRSKSKERKRSRDRERKKSKSRERKRSRSKERRRSRSRSRDRRFRGRYRSPYSGPKFNSAIRGKIGLPHSIKLSRRRSRSKSPFRKDKSPVREPIDNLTPEERDARTVFCMQLAARIRPRDLEEFFSTVGKVRDVRMISDRNSRRSKGIAYVEFVDVSSVPLAIGLTGQRVLGVPIIVQASQAEKNRAAAMANNLQKGSAGPMRLYVGSLHFNITEDMLRGIFEPFGRIESIQLMMDSETGRSKGYGFITFSDSECAKKALEQLNGFELAGRPMKVGHVTERTDASSASSFLDSDELERTGIDLGTTGRLQLMARLAEGTGLQIPPAAQQALQMSGSLAFGAVADLQTRLSQQTEASALAAAASVQPLATQCFQLSNMFNPQTEEEVGWDTEIKDDVIEECNKHGGVIHIYVDKNSAQGNVYVKCPSIAAAIAAVNALHGRWFAGKMITAAYVPLPTYHNLFPDSMTATQLLVPSRR
binds: all assays above
